Data reported in patent publication EP1356819A1, “Use of proteasome/ubiquitination inhibitors and/or MMP inhibitors alone or in combination with a growth hormone for treating /preventing catabolic conditions” (Universitair Medisch Centrum Utrecht, priority 2002, dated 2003).
At least one read-out could not be matched to a standard name with certainty. Where a SMILES comes first, the peptide text is derived from it. The star is where a group is joined. Cbz = O=C(OCc1ccccc1)*

System: GHR
Assay: 125I-GH ligand binding: quantification of receptors at the cell surface
Type: cell-based, rabbit
Settings: treated 3 h with 10 µM, then 125I-GH (8 nM) on ice (Fig. 2)

CC(C)C[C@@H](C=O)NC(=O)[C@H](CC(C)C)NC(=O)[C@H](CC(C)C)NC(=O)OCc1ccccc1 [MG132, carbobenzoxy-L-leucyl-L-leucyl-L-leucinal] (Cbz-Leu-Leu-Leu-aldehyde)
number of GHR at the cell surface, percentage of untreated cells: 50%
